# Reference: article PMC4996533
# Amino acid sequences for entries named in this document (tags omitted). A change or cut given only in a name is not applied to a line headed by its entry.
# UniProt G4N7U4: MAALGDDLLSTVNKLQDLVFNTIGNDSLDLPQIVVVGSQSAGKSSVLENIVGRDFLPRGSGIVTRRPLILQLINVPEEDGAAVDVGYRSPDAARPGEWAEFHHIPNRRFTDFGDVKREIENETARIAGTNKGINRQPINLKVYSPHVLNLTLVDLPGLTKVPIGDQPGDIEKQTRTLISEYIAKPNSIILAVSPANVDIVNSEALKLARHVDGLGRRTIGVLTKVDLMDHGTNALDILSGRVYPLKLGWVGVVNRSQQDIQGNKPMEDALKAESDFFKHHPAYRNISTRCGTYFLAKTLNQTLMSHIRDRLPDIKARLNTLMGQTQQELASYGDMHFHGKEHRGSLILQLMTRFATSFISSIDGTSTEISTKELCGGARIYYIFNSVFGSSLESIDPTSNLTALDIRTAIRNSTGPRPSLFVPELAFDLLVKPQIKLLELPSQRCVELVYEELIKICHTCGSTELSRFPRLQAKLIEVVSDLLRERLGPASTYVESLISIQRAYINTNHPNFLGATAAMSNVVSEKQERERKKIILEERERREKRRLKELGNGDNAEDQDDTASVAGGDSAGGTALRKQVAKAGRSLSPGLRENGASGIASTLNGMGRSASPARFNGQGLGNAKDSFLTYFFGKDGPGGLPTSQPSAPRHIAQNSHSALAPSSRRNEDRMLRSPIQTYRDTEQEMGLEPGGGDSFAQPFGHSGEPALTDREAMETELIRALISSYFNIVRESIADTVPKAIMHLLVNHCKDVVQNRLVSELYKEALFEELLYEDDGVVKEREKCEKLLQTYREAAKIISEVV
# B1: His6-Mdv1 (protein, UniProt A4RJV3 1-661)
# chain: MASPEDENPFQDDPGQEDEDGSILSPRGLEAFSRKVTTTASHLMGPVVDPSSSGHYQSAMTEVQKHLRRPNLQRSMFSMARTTPSDLVRSKLSTREIQHRALAHVPDDMLANIPEDDNNSYSLFQGFQASFPELTDEGKKHRRRVSRGRKLLDEGPTTPENGTTGLQKLRKERASMSHELEMLGIRKNMASSEIREIDIKIANLHGMRRIILERLAALEQEETLLEHDLMEVEARVEDAQMLADEAESTAQQSSPRDTDDADAEDNDGFMSQSIYEKIPSAASTPSKSRKPRIVRRKSMAVLHEHFEPGTSIRELRAHQDCITAMDFDAPFGTLVSAAMDDSVKVWDLNAGRCIGSLEGHTASVRALQVEDNILATGSRDATVRLWDLSKAHYDPHGSHYNGGDDDDDAMAFENPDDQPVDPPAGSMADCPLFTLSSHMDEVTALHFKGDTLVSGSSDKTIRQWDLVKGRCVQTLDVMWAAAQASVSLGTGDGAWRQTARSQAEDADFVGAVQVFDAALACGTADGMVRLWDLRSGQVHRNLVGHTGPVTALQFDNMHLVTGSHDRSIRIWDLRTGSIFDAFAYDHPVTSMMFDARRIVSAAGEDVVKVYDKVESRQWDCGAGIKAAEEMKNPPAIVERVRIRDGYMVEGRRDGIVGIWTC
# Target: GST-Dnm1 (M. oryzae) (UniProt G4N7U4)
# Test: pull-down; both purified
binder,measurement,value
B1,binding,binds

# Results are given in words; binding and its absence hold for the method and conditions named. A result given as binding can be weak or reduced; the word gives no strength. Where a sequence is shown, tags or fusion partners need not be part of it.
